Results reported in publication PMC8634480.
These are yes or no findings as the source states them, for the method shown. Binding seen in cells or lysates may run through a third protein. Some results given as binding are weak or reduced against the parent protein; the word gives no strength. Sequences can lack the tags named with a protein.

By UniProt entry, the sequences of proteins in these tests, tags left out.
UniProt Q8TDY2: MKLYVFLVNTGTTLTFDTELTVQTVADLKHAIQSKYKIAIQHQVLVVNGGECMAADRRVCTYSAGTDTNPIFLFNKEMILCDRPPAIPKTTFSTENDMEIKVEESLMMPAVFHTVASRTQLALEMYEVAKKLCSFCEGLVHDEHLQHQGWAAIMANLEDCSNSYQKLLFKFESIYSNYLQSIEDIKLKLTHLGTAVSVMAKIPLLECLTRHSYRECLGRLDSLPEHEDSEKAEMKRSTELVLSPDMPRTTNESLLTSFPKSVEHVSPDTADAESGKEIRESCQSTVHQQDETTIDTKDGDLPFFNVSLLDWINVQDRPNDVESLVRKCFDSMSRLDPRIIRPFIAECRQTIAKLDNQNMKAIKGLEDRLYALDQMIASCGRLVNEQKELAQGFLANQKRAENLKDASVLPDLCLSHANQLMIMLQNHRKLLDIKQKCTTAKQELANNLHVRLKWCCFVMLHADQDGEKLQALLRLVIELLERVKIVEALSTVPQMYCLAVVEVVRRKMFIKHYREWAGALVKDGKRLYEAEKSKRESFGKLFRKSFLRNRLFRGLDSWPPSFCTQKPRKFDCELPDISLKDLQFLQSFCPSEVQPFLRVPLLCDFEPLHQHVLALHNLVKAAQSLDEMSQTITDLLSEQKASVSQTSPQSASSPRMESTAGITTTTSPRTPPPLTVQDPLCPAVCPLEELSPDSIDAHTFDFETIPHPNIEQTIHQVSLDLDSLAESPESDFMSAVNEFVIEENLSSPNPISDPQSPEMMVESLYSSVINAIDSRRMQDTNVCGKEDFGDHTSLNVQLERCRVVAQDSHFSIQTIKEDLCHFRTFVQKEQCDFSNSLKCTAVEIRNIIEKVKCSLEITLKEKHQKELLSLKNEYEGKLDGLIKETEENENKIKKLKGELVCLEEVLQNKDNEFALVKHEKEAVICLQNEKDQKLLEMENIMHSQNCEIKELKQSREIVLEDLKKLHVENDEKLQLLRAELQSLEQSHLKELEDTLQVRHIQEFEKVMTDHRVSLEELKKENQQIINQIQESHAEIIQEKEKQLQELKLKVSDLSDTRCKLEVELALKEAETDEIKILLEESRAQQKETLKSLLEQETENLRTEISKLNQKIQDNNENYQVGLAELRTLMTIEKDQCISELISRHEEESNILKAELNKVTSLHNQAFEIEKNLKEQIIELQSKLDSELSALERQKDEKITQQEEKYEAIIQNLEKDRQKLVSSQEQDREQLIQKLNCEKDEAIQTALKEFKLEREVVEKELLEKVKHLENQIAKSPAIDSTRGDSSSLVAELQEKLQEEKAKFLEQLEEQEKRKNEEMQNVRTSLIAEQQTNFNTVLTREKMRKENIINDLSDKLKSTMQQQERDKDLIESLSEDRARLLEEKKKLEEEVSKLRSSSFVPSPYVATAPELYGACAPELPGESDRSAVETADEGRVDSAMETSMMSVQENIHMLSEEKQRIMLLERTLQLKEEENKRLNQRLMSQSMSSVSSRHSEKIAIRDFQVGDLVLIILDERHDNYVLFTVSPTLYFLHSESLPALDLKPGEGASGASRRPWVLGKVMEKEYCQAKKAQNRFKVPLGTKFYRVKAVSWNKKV

Target: T1, GFP-HSBP1 (heat shock factor binding protein 1 fused to EGFP) (UniProt O75506)
T1 sequence: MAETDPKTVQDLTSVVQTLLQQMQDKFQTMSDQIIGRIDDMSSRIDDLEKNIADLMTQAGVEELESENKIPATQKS
Assay: co-IP; GFP-trap beads on lysates of U2OS cells stably or transiently expressing GFP-HSBP1; beads with lysate 2 h at 4°C; lysis buffer 20 mM Tris-HCl pH 7.4, 150 mM NaCl, 2 mM MgCl2, 5 mM DTT, 0.5% Tween; wash with 250 mM NaCl; western blot; cells untreated, with control siRNA or siULK1, in EBSS for 2 h or infected with EMCV for 6 h

For “RB1 inducible coiled-coil 1 (FIP200/RB1CC1) (from UniProt Q8TDY2 1-1594)”, the binding was “binds”.
